Test results as given in patent US9388313B2, “Water-insoluble coloring compound, ink, thermal transfer recording sheet, and color filter resist composition” (CANON KABUSHIKI KAISHA, priority 2012, dated 2016).

Columns and labels:
[1] = Saturation C* of bar-coated ink image sample; conditions: ink of the compound, bar coating (Bar No. 10)
Protocol: (§1) Inks (1), (4), (11), (18), (23), (26), and (28) and Comparative Inks (1) and (2) were each applied onto paper for contrast ratio measurement by bar coating (Bar No. 10) and were air-dried overnight to produce image samples. Chromaticity values (L*, a*, b*) in the L*a*b* color system of each image sample were measured with a reflection densitometer SpectroLino (manufactured by Gretag Macbeth AG). The saturation (C*) was calculated based on the measured color characteristic values by the following expression: C*=√{square root over ((a*)^2+(b*)^2)} [Math. 1]
Saturation was evaluated based on the saturation C* at the time at which the image sample was produced by the bar coating (Bar No. 10). The saturation C* was calculated by the above-mentioned expression.

[2] = Chromaticity (L*a*b*) and color tone of bar-coated ink image sample; design: key to color tone evaluation at L* = 92: A: a* is less than −5.0 and b* is 100.0 or more; B: a* is −5.0 or more and b* is 100.0 or more; C: b is less than 100.0; conditions: ink of the compound, bar coating on paper
Protocol: as §1
It is recognized that a larger increase of the chromaticity in the green gamut at a constant value L* is useful for increasing the green gamut. In this Example, the color tone was evaluated based on the values of a* and b* at an L* of 92 as follows:
A: a* is less than −5.0 and b* is 100.0 or more,
B: a* is −5.0 or more and b* is 100.0 or more, and […]

Compound | C* in bar coating (No. 10) [1] | Saturation evaluation [1] | a* at L* = 92 [2] | b* at L* = 92 [2] | color tone evaluation at L* = 92 [2]
CCCCC(CC)CN(CC(CC)CCCC)C(=O)c1ccccc1/N=N/c1c(O)[nH]c(=O)c(C(=O)OCC)c1C (stereo not drawn) [Compound 1] | 110.7 | B (108.0<C*≦112.0) | −11.3 | 110.1 | A
CCCCC(CC)CN(CC(CC)CCCC)S(=O)(=O)c1ccccc1/N=N/c1c(O)[nH]c(=O)c(C(=O)OCC)c1C (stereo not drawn) [Compound 4] | 113.3 | A (112.0<C*) | −10.3 | 112.8 | A
CCCCC(CC)CN(CC(CC)CCCC)C(=O)c1cccc(/N=N/c2c(O)[nH]c(=O)c(C(=O)OCC)c2C)c1 (stereo not drawn) [Compound 11] | 110.3 | B (108.0<C*≦112.0) | −11.3 | 109.8 | A
CCCCC(CC)CN(CC(CC)CCCC)C(=O)c1ccc(/N=N/c2c(O)[nH]c(=O)c(C(=O)OCC)c2C)cc1 (stereo not drawn) [Compound 18] | 117.7 | A (112.0<C*) | −8.2 | 117.4 | A
CCCCC(CC)CN(CC(CC)CCCC)C(=O)c1ccccc1/N=N/c1c(O)[nH]c(=O)c(C(=O)NC(C)(C)C)c1C (stereo not drawn) [Compound 23] | 115.5 | A (112.0<C*) | −9.0 | 115.2 | A
CCCCCc1c(/N=N/c2ccccc2C(=O)N(CC(CC)CCCC)CC(CC)CCCC)c(O)[nH]c(=O)c1C(=O)N1CCCCC1 (stereo not drawn) [Compound 26] | 108.2 | B (108.0<C*≦112.0) | −12.4 | 107.5 | A
CCOC(=O)c1c(C)c(/N=N/c2ccccc2C(=O)N(C2CCCCC2)C2CCCCC2)c(O)[nH]c1=O [Compound 28] | 108.4 | B (108.0<C*≦112.0) | −9.1 | 108.0 | A
CCCCC(CC)CN(CC(CC)CCCC)S(=O)(=O)c1ccc(/N=N/c2c(O)[nH]c(=O)c(C#N)c2C)cc1 (stereo not drawn) [compound 1, reference compound] | 105.4 | C (C*<108.0) | −2.6 | 105.4 | B
CCCCC(CC)CN(CC(CC)CCCC)C(=O)c1ccc(/N=N/c2c(O)[nH]c(=O)c(C#N)c2C)cc1 (stereo not drawn) [compound 2, reference compound] | 90.4 | C (C*<108.0) | −7.2 | 90.1 | C (b is less than 100.0)
